According to patent US11566030B2, “Substituted 2,6-dihydropyrrolo[3,4-c]pyrazoles as pyruvate kinase activators” (priority 2021, dated 2023):
Structures were worked out from names or drawings and are uncertain.

Amino acid sequences for entries named in this document (tags omitted). Residues count along the entry.
UniProt P30613, 14-574 limits assumed: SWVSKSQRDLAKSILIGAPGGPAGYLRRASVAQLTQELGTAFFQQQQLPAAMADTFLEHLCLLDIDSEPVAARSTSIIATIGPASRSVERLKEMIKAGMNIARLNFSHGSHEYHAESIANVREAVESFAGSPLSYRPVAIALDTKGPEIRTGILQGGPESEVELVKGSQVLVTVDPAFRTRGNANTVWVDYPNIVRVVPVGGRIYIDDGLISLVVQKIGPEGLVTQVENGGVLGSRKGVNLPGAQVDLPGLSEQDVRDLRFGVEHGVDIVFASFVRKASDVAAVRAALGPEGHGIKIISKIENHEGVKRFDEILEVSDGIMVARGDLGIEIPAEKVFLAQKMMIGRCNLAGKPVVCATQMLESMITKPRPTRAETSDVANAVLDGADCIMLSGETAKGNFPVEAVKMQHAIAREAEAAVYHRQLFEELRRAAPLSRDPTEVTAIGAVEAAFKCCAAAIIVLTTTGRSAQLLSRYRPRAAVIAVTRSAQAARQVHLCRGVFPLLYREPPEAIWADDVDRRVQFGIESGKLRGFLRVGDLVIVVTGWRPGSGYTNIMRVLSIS

Target: Human pyruvate kinase R (PKR) (Homo sapiens, UniProt P30613)
Test: Biochemical assay for activation of pyruvate kinase R (Kinase-Glo luminescence, ATP generation)
Details: for PKR % activation: maximal activation level achieved with each compound relative to the activation level achieved by AG-348 @ 10 μM; for AC50: read-out: PKR AC50, 0.1 nM PKR, 0.3 mM ADP, 0.1 mM PEP, 1% DMSO

Row | SMILES | PKR % activation [%] | AC50 [µM]
1 | O=C([C@@H](CO)c1ccccc1F)N1Cc2cn(S(=O)(=O)c3ccn(CC(F)F)n3)nc2C1 | 119 | 0.046
2 | CCOc1nc(C)c(S(=O)(=O)n2cc3c(n2)CN(C(=O)[C@H](CO)c2ccccc2)C3)s1 (single isomer, unassigned) | 51 | 0.011
3 | COc1nc(C)c(S(=O)(=O)n2cc3c(n2)CN(C(=O)[C@H](CO)c2ccccc2)C3)s1 (single isomer, unassigned) | 73 | 0.022
4 | Cc1nc(OCC(F)F)sc1S(=O)(=O)n1cc2c(n1)CN(C(=O)[C@H](CO)c1ccccc1)C2 (single isomer, unassigned) | 0 | 0.57
